Results reported in PMC6412927.
Results are given in words; binding and its absence hold for the method and conditions named. Some binding calls cover weakened binding; strength is not graded here.

Legend:
Assay in all cases: two-hybrid; LexA-DB fused PREs (pGilda) with B42-AD fused PAR1 or PAR2 (pYesTrp2) in S. cerevisiae EGY48; growth on SD/Gal/Raf (-Ura/-His/-Trp/-Leu) induction medium, 30 °C, images after 3 d
[1] = target: T1, PACLOBUTRAZOL-… 1 (PRE1) (Arabidopsis thaliana) (UniProt Q9FLE9)
T1 sequence: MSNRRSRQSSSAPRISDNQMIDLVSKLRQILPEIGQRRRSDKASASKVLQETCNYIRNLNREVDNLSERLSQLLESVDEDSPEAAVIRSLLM

[2] = target: T2, PACLOBUTRAZOL-… 2 (PRE2) (Arabidopsis thaliana) (UniProt Q9LXG5)
T2 sequence: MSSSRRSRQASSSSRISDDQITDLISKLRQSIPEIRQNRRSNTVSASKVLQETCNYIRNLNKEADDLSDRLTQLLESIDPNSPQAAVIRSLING

[3] = target: T3, PACLOBUTRAZOL-… 3 (PRE3) (Arabidopsis thaliana) (UniProt Q9CA64)
T3 sequence: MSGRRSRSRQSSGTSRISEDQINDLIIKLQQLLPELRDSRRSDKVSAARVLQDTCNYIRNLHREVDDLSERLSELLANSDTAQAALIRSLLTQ

[4] = target: T4, PACLOBUTRAZOL-… 4 (PRE4) (Arabidopsis thaliana) (UniProt F4JCN9)
T4 sequence: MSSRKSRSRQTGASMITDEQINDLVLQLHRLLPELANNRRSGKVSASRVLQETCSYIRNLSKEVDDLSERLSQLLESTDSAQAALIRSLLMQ

[5] = target: T5, PACLOBUTRAZOL-… 5 (PRE5) (Arabidopsis thaliana) (UniProt Q9LJX1)
T5 sequence: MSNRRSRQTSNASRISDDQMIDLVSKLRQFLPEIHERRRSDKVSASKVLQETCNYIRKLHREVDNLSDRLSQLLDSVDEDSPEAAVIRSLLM

[6] = target: T6, PACLOBUTRAZOL-… 6 (PRE6) (Arabidopsis thaliana) (UniProt Q8GW32)
T6 sequence: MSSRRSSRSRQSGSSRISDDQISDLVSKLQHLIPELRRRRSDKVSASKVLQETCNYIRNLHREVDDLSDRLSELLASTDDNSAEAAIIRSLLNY

Measured: binding

B1: PAR1 (protein, UniProt Q9SJH0 1-118)
chain: MEETLATPDATRRSLSPSCSATVKSRAAGFERRTKRRLSETNASVREDREEAEEEEDEVKEKIEALQRIIPGGAALGVDALFEETAGYILSLQCQIKTIKVLTSFLQRIDQEDMKFGG
binds: [1] | [2] | [3] | [4] | [5] | [6]

B2: PAR2 (protein, UniProt Q9LXR7 1-118)
chain: MEKTLATSHTKRSSPPSPSSAVNTSSTGFNRRTRQRLSDATASVSETDVEDEDEDEEGVEEKIEALQTIVPGGTELGVDALFEETASYILALQCQINAIKVLTTFLERCEKKDMKFGG
binds: [1] | [2] | [3] | [4] | [5] | [6]
